# Laboratory results taken from paper PMC8647151, “PLK1‐dependent phosphorylation restrains EBNA2 activity and lymphomagenesis in EBV‐infected mice” (EMBO Reports, 2021).
# No constants are given. Whether binding was seen depends on the method and setting. Binding seen in cells or lysates may run through a third protein. Some binding calls cover weakened binding; strength is not graded here.
# Key:
# [1] = target: EBV nuclear antigen 2 (EBNA2), endogenous in EBV-infected lymphoblastoid cell lines (Epstein-Barr virus (recombinant strain 2089, based on strain B95-8)) (UniProt P12978); assay: co-IP; total cell lysates of LCLs infected with EBV 2089; IP with EBNA2- or PLK1-specific or isotype-matched control antibodies; both proteins endogenous; Western blot
# [2] = target: EBNA2 fragment 342–474 (Epstein-Barr virus (B95-8)) (UniProt P12978); assay: co-IP; DG75 B cells transfected with HA-tagged or (smaller fragments) GFP-tagged EBNA2 fragments; IP of the fragment, endogenous PLK1 detected by Western blot
# [3] = target: EBNA2 fragment 327–487 (Epstein-Barr virus (B95-8)) (UniProt P12978); assay: as above
# [4] = target: HA-EBNA2, doxycycline-induced in DG75 Dox HA-EBNA2 cells (Epstein-Barr virus (B95-8)) (UniProt P12978); assay: co-IP; DG75 B cells expressing HA-tagged EBNA2 wt or point mutants (transfected or doxycycline-induced); IP of EBNA2, endogenous PLK1 detected by Western blot; 1% NP-40 lysis buffer, 150 mM NaCl, 4°C
# [5] = target: HA-tagged EBNA2 (wild type), transfected (Epstein-Barr virus (B95-8)) (UniProt P12978); assay: as above
# [6] = target: GST-EBNA2 342–422 (not phosphorylated) (Epstein-Barr virus (B95-8)) (UniProt P12978); assay: pull-down; GST-EBNA2 342–422 (wt or S379A, with or without Cyclin B/CDK1 phosphorylation) on glutathione beads; PLK1 from total cellular extracts; Western blot; only the target purified
# [7] = target: GST-EBNA2 446-474 (wt) (Epstein-Barr virus (B95-8)) (UniProt P12978); assay: pull-down; GST-EBNA2 446-474 (wt or phosphorylation mutants) on beads as bait; cellular proteins from DG75 cells; Western blot with GST- and p300-specific antibodies, signals quantified and normalized to wt; only the target purified
Substance,binding [1],binding [2],binding [3],binding [4],binding [5],binding [6],binding [7]
"polo-like kinase 1 (PLK1), endogenous (from UniProt P53350 1-603) (enzyme)",binds,binds,binds,binds,binds,binds weakly,
"histone acetylase and co-activator p300, endogenous (from UniProt Q09472 1-2414)",,,,,,,binds
